The list shows only some results of the screen, not a fair sample: it is rich in T/C values a quarter to a half above the control, in often repeated tests (any T/C) and in doses without a T/C. Other doses and runs of a compound stand elsewhere. T/C is the treated group as % of the vehicle group. Schedule codes are those of the source, taken here to give the interval after Q, in days (D) or hours (H), and the number of doses after X. Some T/C values are followed by the survivors on the day toxicity was checked, most often the fifth; without a count, all were alive then. Some entries were tested several times; the values are given in rising order. Counts like (3×) count equal records among those shown. Some T/C values are negative: the treated tumours shrank. Some doses have a count of surviving animals in place of a T/C: the source files T/C as zero there, which appears to mark a toxic dose or a test without result, not a measured value. Counts of survivors are from the toxicity check (mostly the fifth day) where no day follows; animals may have died later.

Drawing on PubChem BioAssay AID296 (DTP/NCI, 2004), this text covers T/C and survivor count for 19 compounds.

For this assay, the system named is MX-1 breast xenograft, nude mice, tumor weight T/C. Put plainly: NCI In Vivo Anticancer Drug Screen. Data for tumor model Human Mammary Carcinoma MX-1 Xenograft (intrarenal inoculation) in NU/NU Swiss (nude) mice. The conditions noted are these: T/C endpoint: mean tumor weight change, higher T/C = larger tumour; for T/C: evaluated on day 11. Put shortly:
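Mice carrying the implanted tumor receive either test agent or vehicle. Tumor size or survival is then recorded for both groups. Results are stated as the treated-to-control quotient.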

[1] abbreviates: dose: 600.0 mg/kg/injection, schedule: Q04DX003 (sc), vehicle: Klucel (hydroxypropylcellulose) (HPC).
The mark [2] stands for this setting: dose: 1200.0 mg/kg/injection, schedule: Q04DX003 (sc), vehicle: Klucel (hydroxypropylcellulose) (HPC).
Setting [3] is: dose: 200.0 mg/kg/injection, schedule: Q04DX003 (sc), vehicle: suspension in saline.
Where [4] appears, read: dose: 32.0 mg/kg/injection, schedule: Q01DX010 (sc), vehicle: water.
The mark [5] stands for this setting: dose: 300.0 mg/kg/injection, schedule: Q04DX003 (sc), vehicle: saline.
Setting [6] is: dose: 300.0 mg/kg/injection, schedule: Q04DX003 (sc), vehicle: suspension in saline.

With `CC1CCC(n2cnc3c(Cl)ncnc32)O1` (stereo not given), the T/C was 129 % of control (dose: 150.0 mg/kg/injection, schedule: Q04DX003 (sc), vehicle: Klucel (hydroxypropylcellulose) (HPC)); 54, 88 (2×), 94 [5 of 6 alive on day 11], 106, 108, 118, 123 % of control (dose: 300.0 mg/kg/injection, schedule: Q04DX003 (sc), vehicle: Klucel (hydroxypropylcellulose) (HPC)); 47 (2×), 48, 67, 70, 78, 82, 82 % of control [5 of 6 alive on day 11] under setting [1]; 94 % of control [5 of 6 alive on day 11] under setting [2]. The survivor count under setting [2] is listed as 0 of 6 on day 11, 1 of 6 on day 11, 2 of 6 on day 11, 3 of 6 on day 11 and the survivor count (dose: 2400.0 mg/kg/injection, schedule: Q04DX003 (sc), vehicle: Klucel (hydroxypropylcellulose) (HPC)) is listed as 0 of 6 on day 11.

In the case of `CN(C)N=Nc1cn[nH]c1C(N)=O`, the T/C under setting [3] was 149 % of control. For the same compound, the survivor count runs as follows: (dose: 1600.0 mg/kg/injection, schedule: Q04DX003 (sc), vehicle: saline) 2 of 6 on day 11; (dose: 1600.0 mg/kg/injection, schedule: Q04DX003 (sc), vehicle: suspension in saline) 1 of 6 on day 11.

As for `O=CC(S)CO` (stereo not given), the T/C is 131 % of control under setting [3] and 131 % of control [5 of 6 alive on day 11] (dose: 400.0 mg/kg/injection, schedule: Q04DX003 (sc), vehicle: suspension in saline). Also, under “dose: 800.0 mg/kg/injection, schedule: Q04DX003 (sc), vehicle: suspension in saline”, the survivor count is on record as 2 of 6 on day 11.

As to `C=C(C(=O)O)C(N)C(=O)O` (stereo not given), the survivor count (dose: 2400.0 mg/kg/injection, schedule: Q04DX003 (sc), vehicle: suspension in saline) was 0 of 6 on day 11.

Regarding `CC1OC1C(=O)C1(O)C(C)C(O)C23OC2(C(O)c2c(O)cccc2C3=O)C1O` (stereo not given), the survivor count (dose: 96.0 mg/kg/injection, schedule: Q04DX003 (sc), vehicle: Klucel (hydroxypropylcellulose) (HPC)) is on record as 0 of 6 on day 11.

Regarding `COc1cccc2c1C(=N)c1c(O)c3c(c(O)c1C2=O)C[C@@](O)(C(C)=O)C[C@@H]3OC1CC(N)C(O)C(C)O1` (stereo not given in full), under setting [4], the survivor count is on record as 1 of 3 on day 11.

On to `CCCCCC[Se][Se]CCCCCC`, for which the T/C (dose: 37.5 mg/kg/injection, schedule: Q04DX003 (sc), vehicle: Klucel (hydroxypropylcellulose) (HPC)) is 128 % of control. In addition, the survivor count runs as follows: under setting [1], 2 of 6 on day 11; under setting [2], 1 of 6 on day 11.

For the compound `CN=C(N)N/N=C(\c1ccccc1)c1ccc(Br)cc1`, the T/C (dose: 12.5 mg/kg/injection, schedule: Q04DX003 (sc), vehicle: saline with Tween-80) is 131 % of control.

With `Cc1c2cc[n+](C)cc2c(C)c2c1[nH]c1ccc(O)cc12`, the T/C (dose: 3.0 mg/kg/injection, schedule: Q04DX003 (sc), vehicle: water) was 135 % of control [4 of 6 alive on day 11]. For the same compound, the survivor count (dose: 12.0 mg/kg/injection, schedule: Q04DX003 (sc), vehicle: water) is listed as 1 of 6 on day 11.

Take `CSC1SCC2C(=O)N(C)C(C(C)C)C(=O)OCC(NC(=O)c3cnc4ccccc4n3)C(=O)NC(C)C(=O)N(C)C1C(=O)N(C)C(C(C)C)C(=O)OCC(NC(=O)c1cnc3ccccc3n1)C(=O)NC(C)C(=O)N2C` (stereo not given): the survivor count (dose: 480.0 micrograms/kg/injection, schedule: Q01DX010 (sc), vehicle: saline) is recorded as 0 of 3 on day 11.

With `CC1(O)CC23CC(O)C4(O)C(CC(O)C4(C)C)C(C)(O)C2CCC1C3O` (stereo not given), the T/C (dose: 0.5 mg/kg/injection, schedule: Q04DX003 (sc), vehicle: Klucel (hydroxypropylcellulose) (HPC)) is 132 % of control [5 of 6 alive on day 11]. Further, the survivor count is recorded as 3 of 6 on day 11 (dose: 1.0 mg/kg/injection, schedule: Q04DX003 (sc), vehicle: Klucel (hydroxypropylcellulose) (HPC)) and 0 of 6 on day 11 (dose: 2.0 mg/kg/injection, schedule: Q04DX003 (sc), vehicle: Klucel (hydroxypropylcellulose) (HPC)).

In the case of `CCCC(=O)Nc1ncnc2c1ncn2C1OC2COP(=O)(O)OC2C1OC(=O)CCC` (stereo not given), the T/C (dose: 100.0 mg/kg/injection, schedule: Q01DX010 (sc), vehicle: saline) was 137 % of control and the T/C (dose: 800.0 mg/kg/injection, schedule: Q01DX010 (sc), vehicle: saline) was 141 % of control [2 of 3 alive on day 11].

Turning to `CCN(CC)c1ccc2[nH]c3c(C(N)=O)cc(=O)c(=O)c=3oc2c1`, under “dose: 600.0 mg/kg/injection, schedule: Q04DX003 (sc), vehicle: saline with Tween-80”, the T/C is 127 % of control.

For `Cc1cc(N(CC(C)Br)CC(C)Br)ccc1N=Nc1ccccc1C(=O)O` (stereo not given), where the note is “dose: 25.0 mg/kg/injection, schedule: Q01DX010 (sc), vehicle: saline with Tween-80”, the survivor count was 0 of 3 on day 11.

As for `COc1cccc2c1C(=O)c1c(O)c3c(c(O)c1C2=O)C[C@@](O)(/C(CO)=N/NC(=O)c1ccc(Cl)c(Cl)c1)C[C@@H]3OC1CC(N)C(O)C(C)O1` (stereo not given in full), the survivor count by setting is: (dose: 16.0 mg/kg/injection, schedule: Q01DX010 (sc), vehicle: water) 1 of 3 on day 11; under setting [4], 1 of 3 on day 11; (dose: 64.0 mg/kg/injection, schedule: Q01DX010 (sc), vehicle: water) 0 of 3 on day 11.

Turning to `OC(C1CO1)C(O)C1CO1` (stereo not given), the survivor count runs as follows: (dose: 1.0 mg/kg/injection, schedule: Q01DX010 (sc), vehicle: saline) 0 of 3 on day 11; (dose: 2.0 mg/kg/injection, schedule: Q01DX010 (sc), vehicle: saline) 0 of 3 on day 11; (dose: 4.0 mg/kg/injection, schedule: Q01DX010 (sc), vehicle: saline) 0 of 2 on day 11, 0 of 3 on day 11, 1 of 3 on day 11; (dose: 8.0 mg/kg/injection, schedule: Q01DX010 (sc), vehicle: saline) 0 of 3 on day 11.

For the compound `CCOC(=O)C(N)C[S][Sn]([CH3])([CH3])[Cl]` (stereo not given), the T/C (dose: 37.5 mg/kg/injection, schedule: Q04DX003 (sc), vehicle: saline) is 138 % of control. In addition, the survivor count (dose: 150.0 mg/kg/injection, schedule: Q04DX003 (sc), vehicle: saline) is recorded as 2 of 6 on day 11 and the survivor count under setting [5] is recorded as 0 of 6 on day 11.

As to `O=C1c2ccccc2C(=O)c2c(NCCNCCO)ccc(O)c21`, the T/C (dose: 12.5 mg/kg/injection, schedule: Q04DX003 (sc), vehicle: suspension in saline) is 125 % of control and the T/C (dose: 50.0 mg/kg/injection, schedule: Q04DX003 (sc), vehicle: suspension in saline) was 127 % of control.

For `CC1CN1P1(N2CC2C)=NP(N2CC2C)(N2CC2C)=NP(N2CC2C)(N2CC2C)=N1` (stereo not given), the T/C is, setting by setting: (dose: 75.0 mg/kg/injection, schedule: Q04DX003 (sc), vehicle: suspension in saline) 23, 29, 32, 42, 46 % of control; (dose: 150.0 mg/kg/injection, schedule: Q04DX003 (sc), vehicle: suspension in saline) -94, 4, 5, 10 [5 of 6 alive on day 11], 72 % of control; under setting [6], 6 % of control [5 of 6 alive on day 11]. In addition, the survivor count was 0 of 6 on day 11 (dose: 150.0 mg/kg/injection, schedule: Q01DX010 (sc), vehicle: saline); 0 of 3 on day 11 (dose: 200.0 mg/kg/injection, schedule: Q01DX010 (sc), vehicle: saline); 0 of 6 on day 11 under setting [5]; 0 of 6 on day 11, 2 of 6 on day 11, 3 of 5 on day 11 under setting [6]; 0 of 6 on day 11 (dose: 600.0 mg/kg/injection, schedule: Q04DX003 (sc), vehicle: saline); 0 of 6 on day 11 (dose: 600.0 mg/kg/injection, schedule: Q04DX003 (sc), vehicle: suspension in saline).
